Laboratory results from paper PMC7226988.
Like-named read-outs stand apart in the source and are kept apart here. Results are given in words; binding and its absence hold for the method and conditions named. In cells and extracts the contact can be indirect. Some entries that bind do so weakly or less than the wild type. For some of these results: Sequences can lack the tags named with a protein. Blank lines part the entries; values can stand above or below the molecule they belong to.

Protein sequences, listed by entry. Tags and fused reporters are not part of them.
UniProt Q03135: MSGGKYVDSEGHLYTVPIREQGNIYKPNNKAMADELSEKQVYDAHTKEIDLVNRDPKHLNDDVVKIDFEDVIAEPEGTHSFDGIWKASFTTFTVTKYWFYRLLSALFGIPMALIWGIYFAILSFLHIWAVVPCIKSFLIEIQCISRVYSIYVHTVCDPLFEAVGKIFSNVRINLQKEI

How the values were obtained:
[1] = target: T1, HA-tagged human sodium taurocholate cotransporting polypeptide (HA-hNTCP), expressed in U2OS cells (human) (UniProt Q14973); test: co-IP; U2OS cells expressing tagged hNTCP (HA or FLAG), RIPA lysate, anti-HA antibody on agarose beads 16 h at 4 °C (beads for FLAG-hNTCP not told), immunoblot; in Figure S1A also after methyl-beta-cyclodextrin (5 mM, 30 min)
T1 sequence: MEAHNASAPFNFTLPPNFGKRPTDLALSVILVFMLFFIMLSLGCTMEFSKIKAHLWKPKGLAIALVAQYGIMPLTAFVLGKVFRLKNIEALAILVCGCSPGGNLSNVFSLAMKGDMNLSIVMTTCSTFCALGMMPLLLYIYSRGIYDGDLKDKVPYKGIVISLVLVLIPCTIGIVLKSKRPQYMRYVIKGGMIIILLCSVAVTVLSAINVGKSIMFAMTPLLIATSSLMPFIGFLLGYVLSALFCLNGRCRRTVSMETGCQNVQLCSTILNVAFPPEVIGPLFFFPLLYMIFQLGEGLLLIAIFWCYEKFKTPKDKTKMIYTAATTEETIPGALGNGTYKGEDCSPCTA

[2] = target: T2, stomatin, endogenous in human liver (human (endogenous in human liver)) (UniProt P27105); test: co-IP; human liver homogenate in RIPA buffer, anti-stomatin overnight at 4 °C, Protein A agarose beads, immunoblot; two liver samples
T2 sequence: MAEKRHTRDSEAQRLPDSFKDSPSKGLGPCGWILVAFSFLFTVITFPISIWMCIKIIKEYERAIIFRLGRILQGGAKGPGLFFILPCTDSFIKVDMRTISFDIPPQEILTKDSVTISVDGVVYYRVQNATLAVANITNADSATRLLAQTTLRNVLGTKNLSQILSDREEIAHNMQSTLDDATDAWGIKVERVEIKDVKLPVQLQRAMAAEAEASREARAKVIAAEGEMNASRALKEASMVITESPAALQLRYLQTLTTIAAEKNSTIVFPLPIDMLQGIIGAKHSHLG

[3] = target: T1, HA-tagged human sodium taurocholate cotransporting polypeptide (HA-hNTCP), expressed in U2OS cells (human); test: co-IP; U2OS cells expressing tagged hNTCP (HA or FLAG), RIPA lysate, anti-HA antibody on agarose beads 16 h at 4 °C (beads for FLAG-hNTCP not told), immunoblot; in Figure S1A also after methyl-beta-cyclodextrin (5 mM, 30 min); remark: listed apart in the source
[4] = target: T3, FLAG-tagged human NTCP (FLAG-hNTCP) (human) (UniProt Q14973); test: as above
T3 sequence: T1 sequence

[5] = target: T4, HA-hNTCP-Y307X, truncated human NTCP lacking the entire C-terminus (human) (UniProt Q14973); test: as above
T4 sequence: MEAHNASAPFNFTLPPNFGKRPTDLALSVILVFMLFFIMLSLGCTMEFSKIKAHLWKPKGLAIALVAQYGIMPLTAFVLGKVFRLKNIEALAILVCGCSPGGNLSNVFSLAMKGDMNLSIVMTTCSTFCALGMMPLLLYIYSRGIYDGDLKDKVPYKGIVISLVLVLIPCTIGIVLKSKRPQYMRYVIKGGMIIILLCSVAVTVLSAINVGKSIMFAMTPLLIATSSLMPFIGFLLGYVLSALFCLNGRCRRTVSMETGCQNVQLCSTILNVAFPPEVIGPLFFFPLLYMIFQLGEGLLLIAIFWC

B1: NTCP, endogenous in human liver (protein, UniProt Q14973 1-349)
chain: T1 sequence
binding [2]: binds

B2: CLCC1 expressed in U2OS cells (V5-CLCC1) (protein, UniProt Q96S66 19-551)
chain: HDDDWIDPTDMLNYDAASGTMRKSQAKYGISGEKDVSPDLSCADEISECYHKLDSLTYKIDECEKKKREDYESQSNPVFRRYLNKILIEAGKLGLPDENKGDMHYDAEIILKRETLLEIQKFLNGEDWKPGALDDALSDILINFKFHDFETWKWRFEDSFGVDPYNVLMVLLCLLCIVVLVATELWTYVRWYTQLRRVLIISFLFSLGWNWMYLYKLAFAQHQAEVAKMEPLNNVCAKKMDWTGSIWEWFRSSWTYKDDPCQKYYELLLVNPIWLVPPTKALAVTFTTFVTEPLKHIGKGTGEFIKALMKEIPALLHLPVLIIMALAILSFCYGAGKSVHVLRHIGGPESEPPQALRPRDRRRQEEIDYRPDGGAGDADFHYRGQMGPTEQGPYAKTYEGRREILRERDVDLRFQTGNKSPEVLRAFDVPDAEAREHPTVVPSHKSPVLDTKPKETGGILGEGTPKESSTESSQSAKPVSGQDTSGNTEGSPAAEKAQLKSEAAGSPDQGSTYSPARGVAGPRGQDPVSSPCG
binding [3]: binds

B3: V5-stomatin (protein, UniProt P27105 1-288)
chain: T2 sequence
binding [4]: binds | binding [5]: binds | binding [3]: binds

Second part, the molecule after the results:

binding [1]: binds
Molecule: caveolin-1, in U2OS cells expressing HA-hNTCP (from UniProt Q03135 1-178)

binding [3]: binds
B4: stomatin in the cells of Figure S1A (cells expressing HA-hNTCP, with methyl-beta-cyclodextrin) (protein, UniProt P27105 1-288)
chain: T2 sequence
